Results from the supplement of paper PMC12823440, “Inhibitors supercharge kinase turnover through native proteolytic circuits” (Nature, 2025).
The list shows a part of the results. Hit calls seldom repeat between salt and free forms of one compound.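 In K562 cells expressing nanoluciferase-fused kinases, luminescence was recorded at 4 h intervals between 2 and 18 h, normalized as percent of control with DMSO at 100% and a positive control at 0%. A significant (2 sigma) signal drop marks a time point as decreased. The authors' rule for a hit is not shown and takes in more than the number of time points.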

Protein sequences, listed by entry. Tags and fused reporters are not part of them. Lines headed by an entry give the natural chain unless they say otherwise; changes in a name come on top.
UniProt Q13555: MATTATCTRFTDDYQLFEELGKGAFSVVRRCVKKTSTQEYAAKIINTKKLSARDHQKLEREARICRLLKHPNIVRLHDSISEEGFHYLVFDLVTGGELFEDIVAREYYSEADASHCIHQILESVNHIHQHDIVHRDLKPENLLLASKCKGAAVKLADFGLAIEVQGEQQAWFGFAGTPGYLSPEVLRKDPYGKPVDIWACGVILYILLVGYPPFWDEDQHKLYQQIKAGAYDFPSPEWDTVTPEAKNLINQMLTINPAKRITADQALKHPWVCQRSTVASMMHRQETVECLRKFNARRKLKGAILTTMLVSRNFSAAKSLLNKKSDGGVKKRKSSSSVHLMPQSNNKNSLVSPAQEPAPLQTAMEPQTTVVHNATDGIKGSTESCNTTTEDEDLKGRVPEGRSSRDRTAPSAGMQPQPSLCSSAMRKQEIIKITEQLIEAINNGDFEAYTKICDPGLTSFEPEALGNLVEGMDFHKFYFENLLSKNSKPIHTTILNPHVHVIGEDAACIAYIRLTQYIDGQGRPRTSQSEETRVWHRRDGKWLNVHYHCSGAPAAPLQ
UniProt Q15131: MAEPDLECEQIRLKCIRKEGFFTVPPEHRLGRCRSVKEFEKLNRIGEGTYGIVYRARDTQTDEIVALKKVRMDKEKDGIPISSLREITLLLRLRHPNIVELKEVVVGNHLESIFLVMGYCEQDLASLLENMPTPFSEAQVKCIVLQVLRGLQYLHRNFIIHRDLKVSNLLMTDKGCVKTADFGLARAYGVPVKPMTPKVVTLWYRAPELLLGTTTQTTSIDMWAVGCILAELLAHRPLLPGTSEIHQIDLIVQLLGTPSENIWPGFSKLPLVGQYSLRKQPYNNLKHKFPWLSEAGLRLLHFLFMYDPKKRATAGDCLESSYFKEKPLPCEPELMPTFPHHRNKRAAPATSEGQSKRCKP
UniProt Q00526: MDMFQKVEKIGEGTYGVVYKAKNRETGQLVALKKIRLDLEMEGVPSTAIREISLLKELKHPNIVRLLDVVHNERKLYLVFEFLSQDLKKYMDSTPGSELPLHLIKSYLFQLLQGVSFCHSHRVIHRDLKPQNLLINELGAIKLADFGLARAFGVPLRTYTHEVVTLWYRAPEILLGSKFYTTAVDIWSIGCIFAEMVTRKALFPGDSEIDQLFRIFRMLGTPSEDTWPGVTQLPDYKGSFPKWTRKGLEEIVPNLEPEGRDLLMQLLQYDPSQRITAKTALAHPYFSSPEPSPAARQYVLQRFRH
UniProt Q00534, whole entry: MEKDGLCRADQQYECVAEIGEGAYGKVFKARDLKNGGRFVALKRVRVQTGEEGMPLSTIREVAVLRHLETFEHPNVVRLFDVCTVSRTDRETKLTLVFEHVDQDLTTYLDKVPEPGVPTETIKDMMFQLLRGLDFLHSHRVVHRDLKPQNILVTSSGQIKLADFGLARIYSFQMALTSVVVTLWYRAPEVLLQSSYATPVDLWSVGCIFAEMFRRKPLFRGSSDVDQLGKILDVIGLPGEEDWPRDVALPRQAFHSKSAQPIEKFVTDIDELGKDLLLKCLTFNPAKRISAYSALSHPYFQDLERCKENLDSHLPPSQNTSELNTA
UniProt O96017, whole entry: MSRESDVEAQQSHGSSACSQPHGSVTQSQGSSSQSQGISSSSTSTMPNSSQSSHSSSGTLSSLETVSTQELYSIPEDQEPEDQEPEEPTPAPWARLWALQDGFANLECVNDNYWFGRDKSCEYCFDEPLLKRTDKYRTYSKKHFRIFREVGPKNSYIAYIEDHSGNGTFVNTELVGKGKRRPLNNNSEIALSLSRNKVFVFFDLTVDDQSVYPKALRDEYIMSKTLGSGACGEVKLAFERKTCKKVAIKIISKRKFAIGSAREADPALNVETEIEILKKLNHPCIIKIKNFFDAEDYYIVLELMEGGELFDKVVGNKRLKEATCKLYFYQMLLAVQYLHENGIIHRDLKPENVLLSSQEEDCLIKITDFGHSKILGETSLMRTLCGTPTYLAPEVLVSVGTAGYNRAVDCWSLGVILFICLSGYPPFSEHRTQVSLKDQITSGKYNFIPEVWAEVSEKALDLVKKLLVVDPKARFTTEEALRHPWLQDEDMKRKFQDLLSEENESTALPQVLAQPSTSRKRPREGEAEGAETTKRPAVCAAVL
UniProt P07333, whole entry: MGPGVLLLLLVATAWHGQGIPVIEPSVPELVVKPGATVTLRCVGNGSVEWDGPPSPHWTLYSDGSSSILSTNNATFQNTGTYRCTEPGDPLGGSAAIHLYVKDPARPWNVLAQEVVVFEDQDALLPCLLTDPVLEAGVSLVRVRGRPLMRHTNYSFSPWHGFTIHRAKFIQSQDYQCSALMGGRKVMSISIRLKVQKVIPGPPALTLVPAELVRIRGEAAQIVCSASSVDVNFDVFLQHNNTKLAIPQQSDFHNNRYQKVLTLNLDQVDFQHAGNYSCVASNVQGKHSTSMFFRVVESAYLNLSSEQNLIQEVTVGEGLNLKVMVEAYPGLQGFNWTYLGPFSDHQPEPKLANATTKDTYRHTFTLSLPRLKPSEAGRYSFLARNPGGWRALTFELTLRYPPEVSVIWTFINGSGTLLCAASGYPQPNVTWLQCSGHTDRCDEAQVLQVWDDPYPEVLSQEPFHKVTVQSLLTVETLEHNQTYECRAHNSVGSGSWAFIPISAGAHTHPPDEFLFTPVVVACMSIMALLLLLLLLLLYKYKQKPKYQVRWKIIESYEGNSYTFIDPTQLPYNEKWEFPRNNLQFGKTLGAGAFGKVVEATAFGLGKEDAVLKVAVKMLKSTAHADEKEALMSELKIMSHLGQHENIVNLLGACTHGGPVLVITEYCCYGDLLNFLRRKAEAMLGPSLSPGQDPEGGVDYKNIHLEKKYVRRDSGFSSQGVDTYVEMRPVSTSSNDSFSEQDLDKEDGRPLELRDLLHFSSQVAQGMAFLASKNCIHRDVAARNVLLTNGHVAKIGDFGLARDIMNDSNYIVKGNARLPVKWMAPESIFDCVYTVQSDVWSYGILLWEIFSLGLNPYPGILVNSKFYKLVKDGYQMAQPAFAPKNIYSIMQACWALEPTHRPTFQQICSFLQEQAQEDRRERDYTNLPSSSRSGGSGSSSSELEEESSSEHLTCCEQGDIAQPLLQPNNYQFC
UniProt P41240: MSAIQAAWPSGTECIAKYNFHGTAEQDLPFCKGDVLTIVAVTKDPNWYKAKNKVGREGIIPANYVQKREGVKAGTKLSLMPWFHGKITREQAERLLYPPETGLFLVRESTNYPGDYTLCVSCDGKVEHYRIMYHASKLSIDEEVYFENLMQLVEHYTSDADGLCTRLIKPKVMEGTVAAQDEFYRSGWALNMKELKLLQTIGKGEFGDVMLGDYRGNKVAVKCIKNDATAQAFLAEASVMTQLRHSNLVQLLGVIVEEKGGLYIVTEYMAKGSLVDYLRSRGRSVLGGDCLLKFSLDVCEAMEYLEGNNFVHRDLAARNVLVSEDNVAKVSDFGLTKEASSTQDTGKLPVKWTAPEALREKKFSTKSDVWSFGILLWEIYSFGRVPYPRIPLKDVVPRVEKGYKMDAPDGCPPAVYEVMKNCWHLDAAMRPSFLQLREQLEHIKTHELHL
UniProt P48729: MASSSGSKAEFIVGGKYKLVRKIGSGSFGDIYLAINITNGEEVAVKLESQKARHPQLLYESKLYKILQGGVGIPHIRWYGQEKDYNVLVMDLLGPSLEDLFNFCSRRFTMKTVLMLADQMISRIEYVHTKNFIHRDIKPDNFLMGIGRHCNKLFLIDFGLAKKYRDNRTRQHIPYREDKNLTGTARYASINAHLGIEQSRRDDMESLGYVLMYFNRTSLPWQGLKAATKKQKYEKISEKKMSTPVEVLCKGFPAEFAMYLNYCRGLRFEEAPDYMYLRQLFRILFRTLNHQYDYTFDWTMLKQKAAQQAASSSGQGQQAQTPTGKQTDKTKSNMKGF
UniProt P48730: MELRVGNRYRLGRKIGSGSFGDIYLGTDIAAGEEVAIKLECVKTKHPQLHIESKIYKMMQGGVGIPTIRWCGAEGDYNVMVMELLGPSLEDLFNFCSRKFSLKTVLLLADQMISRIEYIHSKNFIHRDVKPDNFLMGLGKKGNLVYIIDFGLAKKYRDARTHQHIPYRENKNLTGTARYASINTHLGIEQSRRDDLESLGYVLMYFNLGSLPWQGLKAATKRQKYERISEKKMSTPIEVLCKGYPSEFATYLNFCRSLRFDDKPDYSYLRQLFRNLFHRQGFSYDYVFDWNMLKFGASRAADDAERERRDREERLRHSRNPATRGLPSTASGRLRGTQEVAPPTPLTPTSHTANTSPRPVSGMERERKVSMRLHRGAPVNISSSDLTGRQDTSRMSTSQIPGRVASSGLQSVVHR
UniProt Q08345: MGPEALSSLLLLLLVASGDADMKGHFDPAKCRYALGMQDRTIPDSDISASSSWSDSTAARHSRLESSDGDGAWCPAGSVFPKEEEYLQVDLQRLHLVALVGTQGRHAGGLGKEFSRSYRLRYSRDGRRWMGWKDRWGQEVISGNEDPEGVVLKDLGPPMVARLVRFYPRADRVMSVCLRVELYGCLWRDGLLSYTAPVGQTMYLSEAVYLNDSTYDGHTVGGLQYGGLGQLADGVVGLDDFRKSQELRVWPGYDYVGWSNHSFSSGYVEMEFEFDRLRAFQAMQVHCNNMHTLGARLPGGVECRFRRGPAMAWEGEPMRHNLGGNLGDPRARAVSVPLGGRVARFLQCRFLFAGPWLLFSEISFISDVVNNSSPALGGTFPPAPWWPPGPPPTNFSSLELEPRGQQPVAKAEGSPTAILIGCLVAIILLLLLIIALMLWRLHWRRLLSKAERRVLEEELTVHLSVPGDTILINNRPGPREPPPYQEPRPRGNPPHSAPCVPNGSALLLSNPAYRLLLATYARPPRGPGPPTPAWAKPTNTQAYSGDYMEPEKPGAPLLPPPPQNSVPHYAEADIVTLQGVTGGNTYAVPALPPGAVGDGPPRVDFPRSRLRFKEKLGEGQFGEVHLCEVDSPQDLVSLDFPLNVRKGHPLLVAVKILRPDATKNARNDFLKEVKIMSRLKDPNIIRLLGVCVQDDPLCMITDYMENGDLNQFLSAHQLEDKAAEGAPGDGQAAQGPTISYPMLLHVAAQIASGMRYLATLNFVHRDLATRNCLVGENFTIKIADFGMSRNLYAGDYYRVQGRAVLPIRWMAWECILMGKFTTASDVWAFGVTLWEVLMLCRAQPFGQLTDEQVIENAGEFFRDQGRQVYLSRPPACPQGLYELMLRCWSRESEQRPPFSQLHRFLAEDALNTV
UniProt Q9Y463, whole entry, looked up: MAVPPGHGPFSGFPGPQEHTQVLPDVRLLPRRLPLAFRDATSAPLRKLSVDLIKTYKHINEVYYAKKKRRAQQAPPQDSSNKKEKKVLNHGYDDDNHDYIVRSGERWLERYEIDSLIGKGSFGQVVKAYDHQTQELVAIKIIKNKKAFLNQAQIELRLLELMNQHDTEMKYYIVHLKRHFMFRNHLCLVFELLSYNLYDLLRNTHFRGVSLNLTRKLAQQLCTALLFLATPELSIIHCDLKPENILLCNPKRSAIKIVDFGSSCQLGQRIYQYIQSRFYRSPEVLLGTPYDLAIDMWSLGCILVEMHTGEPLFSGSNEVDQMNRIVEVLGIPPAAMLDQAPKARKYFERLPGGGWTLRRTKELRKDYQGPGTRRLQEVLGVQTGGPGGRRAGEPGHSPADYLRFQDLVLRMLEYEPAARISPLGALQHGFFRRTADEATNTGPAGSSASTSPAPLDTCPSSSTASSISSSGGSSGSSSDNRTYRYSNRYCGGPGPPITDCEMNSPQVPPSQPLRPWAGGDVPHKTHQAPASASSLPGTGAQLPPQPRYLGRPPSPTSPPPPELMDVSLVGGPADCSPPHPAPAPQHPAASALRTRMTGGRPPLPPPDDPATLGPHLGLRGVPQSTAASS
UniProt Q92630: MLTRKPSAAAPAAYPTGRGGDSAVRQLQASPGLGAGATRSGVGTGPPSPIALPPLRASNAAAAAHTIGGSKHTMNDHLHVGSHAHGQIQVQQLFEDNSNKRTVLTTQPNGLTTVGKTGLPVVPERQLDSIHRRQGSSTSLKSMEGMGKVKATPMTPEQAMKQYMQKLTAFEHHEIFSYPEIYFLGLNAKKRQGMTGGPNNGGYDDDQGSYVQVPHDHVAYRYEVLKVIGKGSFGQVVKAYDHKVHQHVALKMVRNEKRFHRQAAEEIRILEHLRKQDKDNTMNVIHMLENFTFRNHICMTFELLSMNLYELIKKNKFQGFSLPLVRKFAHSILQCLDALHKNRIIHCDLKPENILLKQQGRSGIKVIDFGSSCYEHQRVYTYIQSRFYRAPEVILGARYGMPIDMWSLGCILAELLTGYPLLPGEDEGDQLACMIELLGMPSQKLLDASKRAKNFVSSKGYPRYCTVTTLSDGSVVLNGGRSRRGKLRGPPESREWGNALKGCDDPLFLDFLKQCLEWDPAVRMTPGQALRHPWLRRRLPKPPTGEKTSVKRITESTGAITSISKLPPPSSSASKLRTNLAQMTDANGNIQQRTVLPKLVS

What was measured:
Experiment in all cases: number of time points (of 5) at which kinase-Nluc abundance scored as decreased, DMSO-normalised (count); higher = more persistent destabilization
Details in all cases: K562; 2-18 h
CAMK2A = CAMK2A (UniProt Q9UQM7)
CAMK2G = CAMK2G (UniProt Q13555)
CDK10 = CDK10 (UniProt Q15131)
CDK2 = CDK2 (UniProt P24941)
CDK3 = CDK3 (UniProt Q00526)
CDK5 = CDK5 (UniProt Q00535)
CDK6 = CDK6 (UniProt Q00534)
CHEK2 = CHEK2 (UniProt O96017)
CSF1R = CSF1R (UniProt P07333)
CSK = CSK (UniProt P41240)
CSNK1A1 = CSNK1A1 (UniProt P48729)
CSNK1D = CSNK1D (UniProt P48730)
DDR1 = DDR1 (UniProt Q08345)
DYRK1B = DYRK1B (UniProt Q9Y463)
DYRK2 = DYRK2 (UniProt Q92630)
EGFR = EGFR (UniProt P00533)
EGFR_G719S = EGFR_G719S (UniProt P00533)
EGFR_G719S_T790M = EGFR_G719S_T790M (UniProt P00533)
EGFR_L718V = EGFR_L718V (UniProt P00533)
EGFR_L858R = EGFR_L858R (UniProt P00533)

Measured: number of time points

CC[C@H](Nc1ncnc2[nH]cnc12)c1oc2ccccc2c(=O)c1-c1cccc(F)c1 [Tenalisib] (10 µM)
0: all assays above

Cc1cccc(-c2[nH]ncc2-c2ccc3ncccc3n2)n1 (10 µM)
0: all assays above

Cc1cc2cc(Oc3ccnc(Nc4cccc(CS(=O)(=O)NCCN(C)C)c4)n3)ccc2[nH]1 [Sulfatinib] (10 µM)
2: DDR1
3: DYRK2
0: all other assays above

Nc1cc(C(F)(F)F)c(-c2nc(N3CCOCC3)nc(N3CCOCC3)n2)cn1 [Bimiralisib] (10 µM)
3: CAMK2G | DDR1
1: CHEK2 | EGFR_G719S_T790M
4: DYRK2
0: all other assays above

CCOc1ccccc1C=C1C(=O)Nc2ccccc21 (10 µM)
1: CAMK2G | DDR1 | DYRK2 | EGFR_G719S_T790M
0: all other assays above

C=C(F)C(=O)N1CCN(c2nc(OC[C@@H]3CCCN3C)nc3c2CCN(c2cccc4cccc(Cl)c24)C3)C[C@@H]1CC#N (2.5 µM)
0: all assays above

O=C(O)c1ccc(-c2c[nH]c3ncc(-c4ccccc4)cc23)cc1C1CCCC1 (2.5 µM)
0: all assays above

CCn1nc(C2CCN(C(=O)CCO)CC2)nc1-c1cnc(N)c(-c2nnc(C(C)(C)C)o2)n1 (10 µM)
0: all assays above

CC(C)c1cnn2c(NCc3ccccc3-n3cccn3)nc(OC3CCCNC3)nc12 (stereo not given) (2.5 µM)
1: DDR1 | EGFR_L718V
2: EGFR
0: all other assays above

Cn1cc(-c2ccc(F)c(C(F)(F)F)c2)nc1C1CCN(c2ncnc3[nH]ncc23)CC1 (10 µM)
0: all assays above

O=C(NOCCO)c1ccc2cncn2c1Nc1ccc(I)cc1F (10 µM)
1: CAMK2G | EGFR_G719S_T790M | EGFR_L858R
2: DYRK2
0: all other assays above

Fetched one by one from above (two):
Cc1cccc(-c2[nH]ncc2-c2ccc3ncccc3n2)n1 (10 µM)
0: all assays above

O=C(NOCCO)c1ccc2cncn2c1Nc1ccc(I)cc1F (10 µM)
1: CAMK2G | EGFR_G719S_T790M | EGFR_L858R
2: DYRK2
0: all other assays above

Further records follow:

CC(C)(C)c1cc(C(c2cc3c(cc2O)OCO3)N2CCOCC2)cc(C(C)(C)C)c1O (stereo not given) (2.5 µM)
0: all assays above
